# System: T4L-β2AR-Gs or β2AR-Gs complexes
# Experiment: purification and stability of T4L-β2AR-Gs or β2AR-Gs complexes (analytical gel filtration, negative staining EM)
# Design: species or system human
# Description: The ability of PSE-C11 or TPS-E10L to purify and stabilize T4L-β2AR-Gs or β2AR-Gs complexes was measured using electron microscopy (EM) analysis.
# Specifically, measurement of the ability of PSE-C11 for TPS-E10L to purify and stabilize T4L-β2AR-Gs or β2AR-Gs complexes was performed as follows. 100 μM T4L-β2AR solubilized in 0.1 wt % DDM was mixed with 120 μM Gs heterotrimers for 30 minutes. 0.5 units of apyrase (NEB) and 2 mM MgCl2 were added to the mixture, followed by a 1-hour incubation to form complexes. 1 wt % PSE-C11 or TPS-E10L was respectively added to the mixture to achieve a final concentration of 0.8%, and incubated for 30 minutes to allow DDM to be exchanged with PSE-C11 or TPS-E10L. […] Finally, proteins were eluted with a 0.05% (100×CMC) PSE-C11 or TPS-E10L buffer. Gel filtration was performed using a running buffer (20 mM HEPES (pH 7.5), 100 mM NaCl, 0.005% PSE-C11 or TPS-E10L, 1 μM BI, 100 μM TCEP) to purify T4L-β2AR-Gs complexes. To measure the stability of β2AR-Gs complexes present in PSE-C11 or TPS-E10L, analytical gel filtration was performed with running buffers of the same formulation at 12 hours, 1 day, 3 days, 7 days, and 15 days. […]
# In addition, negative staining EM analysis for T4L-β2AR-Gs or β2AR-Gs complexes present in PSE-C11 was performed as follows. […] Images were recorded with a Gatan US4000 CCD camera at a 71,138×magnification with a defocus value of ˜[…].
structure (smiles),measurement,value
CCCCCCCCCCCOCC(COCCCCCCCCCCC)O[C@@H]1OC(CO[C@@H]2OC(CO)[C@@H](O)C(O)C2O)[C@@H](O[C@@H]2OC(CO)[C@@H](O)C(O)C2O)C(O[C@@H]2OC(CO)[C@@H](O)C(O)C2O)C1O[C@@H]1OC(CO)[C@@H](O)C(O)C1O (some centres unmarked) [PSE-C11],negative staining EM images of purified complexes,high monodispersibility without aggregation or denaturation
CCCCCCCCCCOCC(COCCCCCCCCCC)(COCCCCCCCCCC)CO[C@@H]1OC(COCCCO[C@@H]2OC(CO)[C@@H](O)C(O)C2O)[C@@H](OCCCO[C@@H]2OC(CO)[C@@H](O)C(O)C2O)C(OCCCO[C@@H]2OC(CO)[C@@H](O)C(O)C2O)C1OCCCO[C@@H]1OC(CO)[C@@H](O)C(O)C1O (some centres unmarked) [TPS-E10L],negative staining EM images of purified complexes,high monodispersibility without aggregation or denaturation

# Source: patent US20190169218A1, “AMPHIPATHIC COMPOUND HAVING NOVEL PENTA-SACCHARIDE HYDROPHILIC GROUP AND USE THEREOF” (Industry-University Cooperation Foundation Hanyang …, priority 2016, published 2019)
